Laboratory results published in US20100113513A1, “QUINOLINE DERIVATIVES AS FUNGICIDES” (SYNGENTA CROP PROTECTION, INC., priority 2007, published 2010).
Some entries share one result that the patent states for a list of compounds. For at least one compound, name, drawing or mass did not settle the structure.

How the values were obtained:
[1] = tested on: Erysiphe graminis f.sp. tritici; assay: Erysiphe graminis f.sp. tritici (wheat powdery mildew) wheat leaf segment test, preventive; assay type: in vivo; conditions: 200 ppm; wheat leaf segments; assessed four days after inoculation
Septoria tritici = Septoria tritici (leaf blotch) growth inhibition in nutrient broth, photometric; assay type: cell-based; conditions: 200 ppm, 24 C, inhibition of growth after 72 hrs

Row | Structure (SMILES) | control of fungal infection, Erysiphe graminis f.sp. tritici [1] | control of fungal infection, Septoria tritici (Septoria tritici)
1 | COCC(C)(C#N)NC(=O)C(OC)Oc1ccc2ncc(Br)cc2c1 (mixture of isomers) [4 (161)] | ≥ 60% | –
2 | CCOC(Oc1ccc2ncc(Br)cc2c1)C(=O)NC(C)(C#N)COC (mixture of isomers) [7 (161)] | ≥ 60% | –
3 | CCC(Oc1ccc2ncc(Br)cc2c1)C(=O)NC(C)(C#N)COC (mixture of isomers) [45 (161)] | ≥ 60% | –
4 | CCC(Oc1cc(C)c2ncc(I)cc2c1)C(=O)NC(C)(C)CCS(C)(=N)=O (mixture of isomers) [79 (161)] | ≥ 60% | –
5 | COC(Oc1ccc2ncc(Br)cc2c1)C(=O)NC(C)c1ccc(Cl)cc1 (mixture of isomers) [101 (162)] | – | ≥ 60%
6 | COC(Oc1ccc2ncc(Br)cc2c1)C(=O)NC(C)c1ccccc1 (mixture of isomers) [130 (162)] | – | ≥ 60%
7 | CCC(Oc1cc(C)c2ncc(I)cc2c1)C(=O)N1CC=CCC1 (racemic) [10 (162)] | – | ≥ 60%
8 | CCC(Oc1cc(C)c2ncc(I)cc2c1)C(=O)NCc1ccco1 (racemic) [18 (162)] | – | ≥ 60%
9 | CCC(Oc1cc(C)c2ncc(I)cc2c1)C(=O)NCc1cccnc1 (racemic) [25 (162)] | ≥ 60% | ≥ 60%
10 | COC(Oc1cc(C)c2ncc(Br)cc2c1)C(=O)NC(C)(C)CO (racemic) [29 (161)] | ≥ 60% | ≥ 60%
11 | COC(Oc1ccc2ncc(I)cc2c1)C(=O)NC(C)(C)CO (racemic) [30 (161)] | ≥ 60% | –
12 | CCC(Oc1ccc2ncc(Br)cc2c1)C(=O)NC(C)(C)C (racemic) [43 (161)] | ≥ 60% | –
13 | CCC(Oc1cc(C)c2ncc(I)cc2c1)C(=O)NCCCC(OC)OC (racemic) [46 (162)] | ≥ 60% | ≥ 60%
14 | Cc1cc(OC(C)C(=O)NC(C)(C)CO)cc2cc(Br)cnc12 (racemic) [59 (161)] | ≥ 60% | ≥ 60%
15 | CCC(Oc1cc(C)c2ncc(I)cc2c1)C(=O)N1CCN(C(=O)c2ccco2)CC1 (racemic) [67 (162)] | – | ≥ 60%
16 | CCC(Oc1cc(C)c2ncc(I)cc2c1)C(=O)NC(C)(C)CCc1cccc(C(F)(F)F)c1 (racemic) [77 (162)] | ≥ 60% | –
17 | COC(Oc1ccc2ncc(Br)cc2c1)C(=O)NC(C)(C)c1ccccc1 (racemic) [114 (162)] | – | ≥ 60%
18 | CCC(Oc1ccc2ncc(Br)cc2c1)C(=O)NC1CCC1 (racemic) [226 (162)] | ≥ 60% | ≥ 60%
19 | CCCNC(=O)C(CC)Oc1cc(C)c2ncc(I)cc2c1 (stereo not drawn) [1 (162)] | – | ≥ 60%
20 | COCC(C)(C)NC(=O)C(OC)Oc1ccc2ncc(Br)cc2c1 (stereo not drawn) [3 (161)] | ≥ 60% | –
21 | CCNC(=O)C(CC)Oc1cc(C)c2ncc(I)cc2c1 (stereo not drawn) [3 (162)] | ≥ 60% | ≥ 60%
22 | CCC(Oc1cc(C)c2ncc(I)cc2c1)C(=O)NC(C)C (stereo not drawn) [5 (162)] | – | ≥ 60%
23 | CCC(Oc1cc(C)c2ncc(I)cc2c1)C(=O)NC1CCC1 (stereo not drawn) [6 (162)] | – | ≥ 60%
24 | CCC(C)NC(=O)C(CC)Oc1cc(C)c2ncc(I)cc2c1 (stereo not drawn) [7 (162)] | – | ≥ 60%

Row | Structure (SMILES) | control of fungal infection, Erysiphe graminis f.sp. tritici [1] | control of fungal infection, Septoria tritici (Septoria tritici)
25 | CCC(Oc1cc(C)c2ncc(I)cc2c1)C(=O)NCCNC (stereo not drawn) [8 (162)] | – | ≥ 60%
26 | CCC(Oc1cc(C)c2ncc(I)cc2c1)C(=O)NCCS (stereo not drawn) [9 (162)] | – | ≥ 60%
27 | CCC(Oc1cc(C)c2ncc(I)cc2c1)C(=O)NC1CC=CC1 (stereo not drawn) [11 (162)] | – | ≥ 60%
28 | CCC(Oc1cc(C)c2ncc(Br)cc2c1)C(=O)NC(C)(C)C (stereo not drawn) [12 (90), 2-(3-bromo-8-methyl-quinolin-6-yloxy)-N-tert-butyl-butyramide] | – | ≥ 60%
29 | COC(Oc1cc(C)c2ncc(Br)cc2c1)C(=O)NC(C)(C)C (stereo not drawn) [12 (91)] | ≥ 60% | ≥ 60%
30 | CCC(Oc1cc(Cl)c2ncc(Br)cc2c1)C(=O)NC(C)(C)C (stereo not drawn) [12 (94)] | ≥ 60% | ≥ 60%
31 | COC(Oc1ccc2ncc(I)cc2c1)C(=O)NC(C)(C)C (stereo not drawn) [12 (159)] | ≥ 60% | ≥ 60%
32 | CCC(Oc1cc(C)c2ncc(I)cc2c1)C(=O)NC(C)C1CC1 (stereo not drawn) [13 (162)] | – | ≥ 60%
33 | CCC(Oc1cc(C)c2ncc(I)cc2c1)C(=O)NC(C)COC (stereo not drawn) [16 (162)] | ≥ 60% | ≥ 60%
34 | CCC(Oc1cc(C)c2ncc(I)cc2c1)C(=O)NCC1CCCO1 (stereo not drawn) [21 (162)] | – | ≥ 60%
35 | CCC(Oc1cc(C)c2ncc(I)cc2c1)C(=O)NC(C)C(=O)OC (stereo not drawn) [23 (162)] | – | ≥ 60%
36 | COC(Oc1cc(C)c2ncc(I)cc2c1)C(=O)NC(C)(C)C (stereo not drawn) [26 (161)] | ≥ 60% | ≥ 60%
37 | CCC(Oc1cc(C)c2ncc(I)cc2c1)C(=O)NC(C)(C#N)C(C)C (stereo not drawn) [26 (162)] | – | ≥ 60%
38 | COC(Oc1cc2cc(Br)cnc2cc1F)C(=O)NC(C)(C)C (stereo not drawn) [27 (161)] | ≥ 60% | ≥ 60%
39 | COC(Oc1cc(C)c2ncc(I)cc2c1)C(=O)NC(C)(C)CO (stereo not drawn) [31 (161)] | ≥ 60% | ≥ 60%
40 | COC(Oc1ccc2ncc(Br)cc2c1)C(=O)NC(C)(C)C=O (stereo not drawn) [32 (161)] | – | ≥ 60%
41 | COC(Oc1cc(C)c2ncc(Br)cc2c1)C(=O)NC(C)(C)C=O (stereo not drawn) [33 (161)] | ≥ 60% | ≥ 60%
42 | CCC(Oc1cc(C)c2ncc(I)cc2c1)C(=O)NC1CCSC1=O (stereo not drawn) [34 (162)] | – | ≥ 60%
43 | CCC(Oc1cc(C)c2ncc(I)cc2c1)C(=O)NC(C)c1ccccc1 (stereo not drawn) [36 (162)] | – | ≥ 60%
44 | CCC(Oc1ccc2ncc(I)cc2c1)C(=O)NC(C)(C#N)C(C)C (stereo not drawn) [38 (158)] | – | ≥ 60%
45 | CCC(Oc1cc(C)c2ncc(Br)cc2c1)C(=O)NC(C)(C)CO (stereo not drawn) [39 (90)] | ≥ 60% | –
46 | CCC(Oc1cc(C)c2ncc(I)cc2c1)C(=O)NC(C)(C)CO (stereo not drawn) [39 (118)] | – | ≥ 60%
47 | CCC(Oc1cc(Cl)c2ncc(Br)cc2c1)C(=O)NC(C)(C)COC (stereo not drawn) [47 (94)] | ≥ 60% | –
48 | COCC(C)(C)NC(=O)C(OC)Oc1ccc2ncc(Br)cc2c1 (stereo not drawn) [47 (155), 2-(3-Bromo-quinolin-6-yloxy)-2-methoxy-N-(2-methoxy-1,1-dimethyl-ethyl)-acetamide] | – | ≥ 60%

Row | Structure (SMILES) | control of fungal infection, Erysiphe graminis f.sp. tritici [1] | control of fungal infection, Septoria tritici (Septoria tritici)
49 | CCC(Oc1cc(C)c2ncc(I)cc2c1)C(=O)NC(C)(C)c1ccccc1 (stereo not drawn) [49 (162)] | – | ≥ 60%
50 | CCC(Oc1cc(C)c2ncc(Br)cc2c1)C(=O)NC(C)(C)CO (stereo not drawn) [52 (161)] | – | ≥ 60%
51 | CCC(Oc1cc(C)c2ncc(I)cc2c1)C(=O)NC1(C#N)CSCC1C (stereo not drawn) [52 (162)] | – | ≥ 60%
52 | CCC(Oc1cc(C)c2ncc(I)cc2c1)C(=O)NCc1nc2ccccc2[nH]1 (stereo not drawn) [54 (162)] | – | ≥ 60%
53 | CCC(Oc1cc(C)c2ncc(I)cc2c1)C(=O)NC(C)c1ccc(OC)cc1 (stereo not drawn) [56 (162)] | – | ≥ 60%
54 | CCC(Oc1cc(C)c2ncc(I)cc2c1)C(=O)NC(C)c1ccc(Cl)cc1 (stereo not drawn) [59 (162)] | – | ≥ 60%
55 | CC(Oc1cc(Cl)c2ncc(Br)cc2c1)C(=O)NC(C)(C)C (stereo not drawn) [61 (161)] | ≥ 60% | –
56 | CCC(Oc1cc(C)c2ncc(I)cc2c1)C(=O)NC(C)(C)C(=O)Cc1cccnc1 (stereo not drawn) [65 (162)] | – | ≥ 60%
57 | CCC(Oc1cc(C)c2ncc(I)cc2c1)C(=O)NC(C)(C)CC[S+](C)[O-] (stereo not drawn) [69 (161)] | ≥ 60% | –
58 | C#CCC(C)(C)NC(=O)C(CC)Oc1ccc2ncc(I)cc2c1 (stereo not drawn) [71 (161)] | ≥ 60% | –
59 | C#CCN=S(C)(=O)CCC(C)(C)NC(=O)C(CC)Oc1cc(C)c2ncc(I)cc2c1 (stereo not drawn) [80 (161)] | ≥ 60% | –
60 | COC(Oc1ccc2ncc(Br)cc2c1)C(=O)NCc1ccccc1F (stereo not drawn) [87 (162)] | – | ≥ 60%
61 | COC(Oc1ccc2ncc(Br)cc2c1)C(=O)NC1CCCC1 (stereo not drawn) [92 (162)] | – | ≥ 60%
62 | CCC(Oc1ccc2ncc(I)cc2c1)C(=O)NC(C)COC (stereo not drawn) [147 (162)] | – | ≥ 60%
63 | CCC(Oc1ccc2ncc(I)cc2c1)C(=O)NC(C)c1ccc(OC)cc1 (stereo not drawn) [170 (162)] | ≥ 60% | –
64 | CCC(Oc1ccc2ncc(I)cc2c1)C(=O)NC(C)(C)c1ccccc1 (stereo not drawn) [171 (162)] | – | ≥ 60%
65 | CCC(Oc1ccc2ncc(I)cc2c1)C(=O)NC(C)c1ccccc1 (stereo not drawn) [191 (162)] | – | ≥ 60%
66 | CCC(Oc1ccc2ncc(I)cc2c1)C(=O)NCc1ccco1 (stereo not drawn) [197 (162)] | – | ≥ 60%
67 | CCC(Oc1ccc2ncc(I)cc2c1)C(=O)Nc1ccccc1C (stereo not drawn) [199 (162)] | – | ≥ 60%
68 | CCC(Oc1ccc2ncc(Br)cc2c1)C(=O)NC(C)C1CC1 (stereo not drawn) [234 (162)] | – | ≥ 60%
69 | CCC(Oc1ccc2ncc(I)cc2c1)C(=O)NC(C)COC (stereo not drawn) [264 (158)] | ≥ 60% | –
70 | CCC(Oc1ccc2ncc(Br)cc2c1)C(=O)NC(C)c1ccccc1 (stereo not drawn) [268 (162)] | – | ≥ 60%
